Results are given in words; binding and its absence hold for the method and conditions named. Some results given as binding are weak or reduced against the parent protein; the word gives no strength. Tags and fused reporters may be left off the sequences shown.
Target: T1, ACDP4 (Ancient Conserved Domain Protein 4), fused to the GAL4 DNA-binding domain (pGBKT7-ACDP4) (not stated (human or mouse cDNA cloned)) (UniProt Q6P4Q7)
T1 sequence: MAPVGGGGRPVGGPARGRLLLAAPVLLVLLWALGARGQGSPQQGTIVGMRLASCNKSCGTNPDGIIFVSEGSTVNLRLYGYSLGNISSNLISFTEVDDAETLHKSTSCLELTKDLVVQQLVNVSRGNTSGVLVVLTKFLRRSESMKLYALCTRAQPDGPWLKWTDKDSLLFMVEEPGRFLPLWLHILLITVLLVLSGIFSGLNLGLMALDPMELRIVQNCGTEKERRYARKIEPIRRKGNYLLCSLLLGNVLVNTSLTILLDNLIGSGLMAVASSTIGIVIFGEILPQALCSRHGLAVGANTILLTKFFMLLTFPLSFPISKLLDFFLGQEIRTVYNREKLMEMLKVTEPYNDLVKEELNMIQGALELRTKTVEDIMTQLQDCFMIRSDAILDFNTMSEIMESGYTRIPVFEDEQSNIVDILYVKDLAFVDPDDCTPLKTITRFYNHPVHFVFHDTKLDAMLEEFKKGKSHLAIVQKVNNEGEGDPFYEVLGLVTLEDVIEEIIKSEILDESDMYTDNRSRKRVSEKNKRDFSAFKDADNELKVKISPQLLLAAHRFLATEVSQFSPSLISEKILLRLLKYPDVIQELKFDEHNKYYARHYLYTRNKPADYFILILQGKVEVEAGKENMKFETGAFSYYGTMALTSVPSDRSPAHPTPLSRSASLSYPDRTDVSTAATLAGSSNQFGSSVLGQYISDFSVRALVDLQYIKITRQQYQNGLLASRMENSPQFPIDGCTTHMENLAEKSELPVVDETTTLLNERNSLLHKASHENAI
Assay: two-hybrid; pGBKT7-ACDP4 co-transformed with pGADT7-COX11 or pGADT7-RBM30 into AH109 yeast; beta-galactosidase assay of cultures with ONPG; empty pGADT7 as control

B1: COX11, full length, fused to the GAL4 activation domain (pGADT7-COX11) (protein, UniProt Q9Y6N1 1-276)
chain: MGGLWRPGWRCVPFCGWRWIHPGSPTRAAERVEPFLRPEWSGTGGAERGLRWLGTWKRCSLRARHPALQPPRRPKSSNPFTRAQEEERRRQNKTTLTYVAAVAVGMLGASYAAVPLYRLYCQTTGLGGSAVAGHASDKIENMVPVKDRIIKISFNADVHASLQWNFRPQQTEIYVVPGETALAFYRAKNPTDKPVIGISTYNIVPFEAGQYFNKIQCFCFEEQRLNPQEEVDMPVFFYIDPEFAEDPRMIKVDLITLSYTFFEAKEGHKLPVPGYN
For B1, the binding was “binds”.

B2: RNA binding motif protein 30 (RBM30), full length, fused to the GAL4 activation domain (pGADT7-RBM30) (protein, UniProt Q9BQ04 1-359)
chain: MVKLFIGNLPREATEQEIRSLFEQYGKVLECDIIKNYGFVHIEDKTAAEDAIRNLHHYKLHGVNINVEASKNKSKASTKLHVGNISPTCTNQELRAKFEEYGPVIECDIVKDYAFVHMERAEDAVEAIRGLDNTEFQGKRMHVQLSTSRLRTAPGMGDQSGCYRCGKEGHWSKECPVDRTGRVADFTEQYNEQYGAVRTPYTMGYGESMYYNDAYGALDYYKRYRVRSYEAVAAAAAASAYNYAEQTMSHLPQVQSTTVTSHLNSTSVDPYDRHLLPNSGAAATSAAMAAAAATTSSYYGRDRSPLRRAAAMLPTVGEGYGYGPESELSQASAATRNSLYDMARYEREQYVDRARYSAF
With B2 the binding was “binds”.

From paper PMC1097757
